From patent US8048999B2, “Nuclear reprogramming factor” (Kyoto University, priority 2005, dated 2011)
Some entries share one result that the patent states for a list of compounds.

B1: bFGF: cytokine permanently expressed by STO feeder cells transduced with pMX expression vector (protein, UniProt P15655 10-154, looked up)
Fibroblast growth factor 2: PALPEDGGAAFPPGHFKDPKRLYCKNGGFFLRIHPDGRVDGVREKSDPHVKLQLQAEERGVVSIKGVCANRYLAMKEDGRLLASKCVTEECFFFERLESNNYNTYRSRKYSSWYVALKRTGQYKLGSKTGPGQKAILFLPMSAKS
B2: SCF: cytokine permanently expressed by STO feeder cells transduced with pMX expression vector (protein, UniProt P20826 26-190, looked up)
Soluble KIT ligand: KEICGNPVTDNVKDITKLVANLPNDYMITLNYVAGMDVLPSHCWLRDMVIQLSLSLTTLLDKFSNISEGLSNYSIIDKLGKIVDDLVLCMEENAPKNIKESPKRPETRSFTPEEFFSIFNRSIDAFKDFMVASDTSDCVLSSTLGPEKDSRVSVTKPFMLPPVAA

Test system: MEFs derived from the Fbx15^βgeo/βgeo mouse
Assay: Effect of cytokine-producing STO feeder cells on iPS cell establishment (G418 selection)
Format: cell-based
Conditions: 4 factors transduced
Source text: An effect of cytokine on iPS cell establishment was investigated. Expression vector (pMX retroviral vector) for basic fibroblast growth factor (bFGF) or stem cell factor (SCF) was transduced into feeder cells (STO cells) to establish cells permanently expressing the cytokines. […] As a result, the number of formed colonies increased 20 times or higher on the STO cells producing bFGF (FIG. 11) or SCF (data not shown), as compared with the culture on normal STO cells.

Row | Molecule | increase of number of formed colonies compared with culture on normal STO cells [times]
1 | B1 | ≥ 20
2 | B2 | ≥ 20
